# Results published in patent publication US20250368729A1.
# Protein sequences, listed by entry. Tags and fused reporters are not part of them. Residues count along the entry.
# UniProt P10997, residues 34-70: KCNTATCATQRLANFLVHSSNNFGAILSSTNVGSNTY
# UniProt P05067, residues 672-711: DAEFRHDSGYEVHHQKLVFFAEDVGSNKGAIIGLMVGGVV
# Results are given in words; binding and its absence hold for the method and conditions named. In cells and extracts the contact can be indirect. Some entries that bind do so weakly or less than the wild type.
# Assays:
# hIAPP fibril = hIAPP fibril (UniProt P10997); assay: pulldown of 125I-labelled peptide with the substrate pellet (correlation plot against 125I-Igp5)
# [1] = molecular target: Aβ(1-40) amyloid-like fibrils (UniProt P05067); assay: as above
binder,measurement,setting,value
KAQKAQAKQAKQAQKAQKAQAKQAKQ (125I label) [125I-p5],binding,hIAPP fibril,binds
same,binding,[1],binds
